Results as given in patent US20130190217A1, “ESTER OILS” (PANOLIN Holding AG, priority 2010, published 2013).
Like-named read-outs stand apart in the source and are kept apart here. Some compounds share one wording; it may come from a single statement.

How the values were obtained:
[1] = Vibration-frictional wear test (SRV, model III; ASTM D7421-08, fretting load); conditions: for adhesive failure: at 2000 N or after 40 minutes, +80° C.
[2] = Biodegradability according to OECD 301 B/F; conditions: Table 2, biodegradability
[3] = Table 4, taken from safety data sheets, for guidance; cited from earlier work

CC(C)CCCCCCCCCCOC(=O)CCCCCCCC(=O)OCCCCCCCCCCC(C)C [C9D13, di(isotridecyl)nonanedioate]
adhesive failure [1]: still no occurrence of adhesive failure

CC(C)CCCCCCCCCCOC(=O)CCCCCCCCC(=O)OCCCCCCCCCCC(C)C [C10D13, di(isotridecyl)decanedioate]
adhesive failure [1]: still no occurrence of adhesive failure

CC(C)CCCCCCCCCCOC(=O)CCCCCCCCCCC(=O)OCCCCCCCCCCC(C)C [C12D13, di(isotridecyl)dodecanedioate]
fretting load ([1]; after a time of about 42 min, FIG. 1): > 1700 N
adhesive failure [1]: still no occurrence of adhesive failure
OECD 301 B/F [2]: 76%

CC(C)CCCCCCCCCCCCCCC(=O)OCC(C)(C)COC(=O)CCCCCCCCCCCCCCC(C)C [D5C18, neopentyl glycol di(isostearate)]
OECD 301 B/F [3]: 85%

CC(C)CCCCCCCCCCOC(=O)CCCCC(=O)OCCCCCCCCCCC(C)C [DITA, diisotridecyl adipate, reference compound]
OECD 301 B/F [3]: 87%
OECD 301 B/F [2]: 92%

CC(C)CCCCCCCOC(=O)CCCCCCCCCCC(=O)OCCCCCCCC(C)C [Di(isodecyl) dodecanedioate]
OECD 301 B/F [2]: 93%

CC(C)CCCCCCCOC(=O)CCCCC(=O)OCCCCCCCC(C)C [Diisodecyl adipate]
OECD 301 B/F [2]: 82%

trimethylolpropane ester [TMP-C8/10, reference compound]
OECD 301 B/F [3]: 64-88%
